From patent US8889639B2, “Compositions and methods for modulating PGC-1β to treat lipid-related diseases and disorders” (Dana-Farber Cancer Institute, Inc., priority 2004, dated 2014)
Some entries share one result that the patent states for a list of compounds.

Columns and labels:
PGC-1β = test: Knockdown of PGC-1β protein by RNAi constructs in transfected 293 cells, immunoblotting; format: cell-based; settings: transient transfection
SREBP1c = test: FAS -700 luc reporter with SREBP1c and PGC-1β RNAi constructs in hepatoma cells; format: cell-based, mouse; settings: compared to control vector or random RNAi sequence

Substance	reduction of protein level of PGC-1β compared to control vector (PGC-1β)	reduction of activation of the FAS promoter by SREBP1c (SREBP1c)
5′-GTACGGAACTGCATAAGCA-3′ (expressed or natural sequence; the letters are possibly those of the target site) [SEQ ID NO:61, PGC-1β RNAi construct in pSUPER-retro vector under the H1-RNA promoter]	60-90%	more than 60%
5′-GATATCCTCTGTGATGTTA-3′ (expressed or natural sequence) [SEQ ID NO 60, PGC-1β RNAi construct in pSUPER-retro vector under the H1-RNA promoter]	60-90%	more than 60%
